Experimental data: paper PMC5974087, “The RPAP3-Cterminal domain identifies R2TP-like quaternary chaperones” (Nature Communications, 2018)

Target: T1, PIH1D3, LUMIER fusion (human) (UniProt Q9NQM4)
T1 sequence: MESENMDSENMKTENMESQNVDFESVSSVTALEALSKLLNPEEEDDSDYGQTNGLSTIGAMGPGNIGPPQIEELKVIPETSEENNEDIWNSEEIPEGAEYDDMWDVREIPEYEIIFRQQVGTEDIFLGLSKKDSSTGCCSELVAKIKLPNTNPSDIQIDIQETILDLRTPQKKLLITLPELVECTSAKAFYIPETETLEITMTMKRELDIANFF
Assay: co-IP; LUMIER: RL fusion (prey) and 3xFLAG-FFL fusion (bait) transiently expressed in HEK293, anti-FLAG coated wells, HNTG buffer, 3 h at 4 °C; co-IP efficiency from luciferase activities

DYX1C1-iso-c, LUMIER fusion (human)
binding: binds

These are yes or no findings as the source states them, for the method shown. In cells and extracts the contact can be indirect. Binding can be weak; no strength is given. Where a sequence is shown, tags or fusion partners need not be part of it.
